Test [1] addresses T1, HypC from Escherichia coli with a C-terminal hexa-His affinity tag (Escherichia coli) (UniProt P0AAM3).
T1 sequence: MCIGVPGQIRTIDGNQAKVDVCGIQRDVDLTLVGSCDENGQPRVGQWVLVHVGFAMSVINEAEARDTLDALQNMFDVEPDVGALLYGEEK
Description: pull-down; HisPur Ni-NTA affinity chromatography by the hexa-His tag on HypC from soluble extract of E. coli producing holo-HypCH-D; 4 °C; UV-vis and IR spectra of the isolated complex.

Test [2] concerns the target T2, HypC_(Strep) (HypC from Escherichia coli with Strep-tag II C-terminally fused) (Escherichia coli) (UniProt P0AAM3).
T2 sequence: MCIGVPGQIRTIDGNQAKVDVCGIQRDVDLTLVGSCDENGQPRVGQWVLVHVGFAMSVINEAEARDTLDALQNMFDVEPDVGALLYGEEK
Briefly: SEC; holo-HypCS-D after Strep-Tactin affinity chromatography, Superdex 200 Increase 10/300 GL; oligomers separated from the HypCD complex; both purified.

These are yes or no findings as the source states them, for the method shown. For some assays here: In cells and extracts the contact can be indirect. Some results given as binding are weak or reduced against the parent protein; the word gives no strength. Where a sequence is shown, tags or fusion partners need not be part of it.

Here are results for two molecules from paper PMC11565642, “ATP-Triggered Fe(CN)2CO Synthon Transfer from the Maturase HypCD to the Active Site of Apo-[NiFe]-Hydrogenase” (Journal of the American Chemical Society, 2024).

B1: HypD from Escherichia coli (protein, UniProt P24192 1-373)
chain: MRFVDEYRAPEQVMQLIEHLRERASHLSYTAERPLRIMEVCGGHTHAIFKFGLDQLLPENVEFIHGPGCPVCVLPMGRIDTCVEIASHPEVIFCTFGDAMRVPGKQGSLLQAKARGADVRIVYSPMDALKLAQENPTRKVVFFGLGFETTMPTTAITLQQAKARDVQNFYFFCQHITLIPTLRSLLEQPDNGIDAFLAPGHVSMVIGTDAYNFIASDFHRPLVVAGFEPLDLLQGVVMLVQQKIAAHSKVENQYRRVVPDAGNLLAQQAIADVFCVNGDSEWRGLGVIESSGVHLTPDYQRFDAEAHFRPAPQQVCDDPRARCGEVLTGKCKPHQCPLFGNTCNPQTAFGALMVSSEGACAAWYQYRQQESEA
On to B1, for which, in test [1], the binding entry is reported as “binds”.

B2: HypE (protein, UniProt P24193 1-336)
chain: MNNIQLAHGSGGQAMQQLINSLFMEAFANPWLAEQEDQARLDLAQLVAEGDRLAFSTDSYVIDPLFFPGGNIGKLAICGTANDVAVSGAIPRYLSCGFILEEGLPMETLKAVVTSMAETARAAGIAIVTGDTKVVQRGAVDKLFINTAGMGAIPANIHWGAQTLTAGDVLLVSGTLGDHGATILNLREQLGLDGELVSDCAVLTPLIQTLRDIPGVKALRDATRGGVNAVVHEFAAACGCGIELSEAALPVKPAVRGVCELLGLDALNFANEGKLVIAVERNAAEQVLAALHSHPLGKDAALIGEVVERKGVRLAGLYGVKRTLDLPHAEPLPRIC
B2: the binding entry in test [2] is on record as “binds”.
